Reference: patent US9606132B2, “Methods of monitoring adherence to lurasidone therapy” (Ameritox, Ltd., priority 2013, dated 2017)
Further values from the same series stand in other lists.

Assay: Quantitative urine testing of patients prescribed Latuda for compliance over 5 days (Examples 2-7)

urine concentration (60 mg/day Latuda, Day 1, individual subjects): 15.6 ng/mL
urine concentration (60 mg/day Latuda, Day 5, individual subjects): 37.3 ng/mL
urine concentration (100 mg/day Latuda, Day 1, subject twenty-one): 94.9 ng/mL
urine concentration (100 mg/day Latuda, Day 4, subject twenty-one): 62.5 ng/mL
urine concentration (100 mg/day Latuda, Day 5, subject twenty-one): 64.5 ng/mL
Substance: Lurasidone
